# Percent effect of library compounds

Sequences of proteins named here, by UniProt entry; tags and fusion partners are left off. Residues count along the entry.
UniProt A4I591, 1-473: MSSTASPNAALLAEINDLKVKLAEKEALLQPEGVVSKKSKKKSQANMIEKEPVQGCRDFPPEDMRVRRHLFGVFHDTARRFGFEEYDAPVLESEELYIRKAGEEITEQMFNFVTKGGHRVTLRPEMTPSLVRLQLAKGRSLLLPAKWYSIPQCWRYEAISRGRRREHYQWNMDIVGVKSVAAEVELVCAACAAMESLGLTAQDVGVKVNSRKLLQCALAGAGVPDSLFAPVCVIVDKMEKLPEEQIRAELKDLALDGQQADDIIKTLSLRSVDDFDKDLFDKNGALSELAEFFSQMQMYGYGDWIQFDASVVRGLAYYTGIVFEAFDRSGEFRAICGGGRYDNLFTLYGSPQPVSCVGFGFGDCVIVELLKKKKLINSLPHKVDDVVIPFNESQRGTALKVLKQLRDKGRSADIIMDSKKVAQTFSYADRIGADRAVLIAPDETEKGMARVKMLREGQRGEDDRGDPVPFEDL
UniProt Q8IDJ8, 1-583: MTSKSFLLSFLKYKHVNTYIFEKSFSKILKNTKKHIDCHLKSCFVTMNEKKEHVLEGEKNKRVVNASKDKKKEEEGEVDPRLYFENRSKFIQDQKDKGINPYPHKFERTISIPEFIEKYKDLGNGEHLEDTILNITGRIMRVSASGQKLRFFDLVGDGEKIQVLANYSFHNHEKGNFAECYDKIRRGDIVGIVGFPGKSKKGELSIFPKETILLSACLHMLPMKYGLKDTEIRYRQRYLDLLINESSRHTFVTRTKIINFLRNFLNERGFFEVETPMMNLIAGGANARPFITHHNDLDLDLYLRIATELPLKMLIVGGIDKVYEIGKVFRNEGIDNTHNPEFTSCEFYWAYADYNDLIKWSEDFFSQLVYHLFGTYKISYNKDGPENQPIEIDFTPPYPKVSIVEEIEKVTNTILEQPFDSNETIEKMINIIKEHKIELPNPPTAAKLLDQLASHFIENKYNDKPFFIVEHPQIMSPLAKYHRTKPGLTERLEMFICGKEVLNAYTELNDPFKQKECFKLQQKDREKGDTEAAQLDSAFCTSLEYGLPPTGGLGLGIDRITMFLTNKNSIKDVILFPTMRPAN
UniProt Q4DA54, 1-478: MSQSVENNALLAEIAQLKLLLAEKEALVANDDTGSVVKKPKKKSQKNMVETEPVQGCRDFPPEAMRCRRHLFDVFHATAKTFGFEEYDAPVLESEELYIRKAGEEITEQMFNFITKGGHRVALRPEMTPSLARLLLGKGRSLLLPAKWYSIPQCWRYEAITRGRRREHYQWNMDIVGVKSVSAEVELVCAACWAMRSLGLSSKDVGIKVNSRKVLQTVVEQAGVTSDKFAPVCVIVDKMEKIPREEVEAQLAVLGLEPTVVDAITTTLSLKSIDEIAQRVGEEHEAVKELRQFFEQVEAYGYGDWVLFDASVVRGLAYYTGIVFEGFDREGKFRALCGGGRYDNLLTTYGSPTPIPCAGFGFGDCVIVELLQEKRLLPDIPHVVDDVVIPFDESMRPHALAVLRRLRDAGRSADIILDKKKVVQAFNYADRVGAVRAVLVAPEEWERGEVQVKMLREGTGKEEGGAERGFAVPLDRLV

LiHisRS: 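Enzyme assay of histidyl-tRNA synthetase; the read-out is not stated. Target: Histidine-tRNA ligase, Leishmania infantum (UniProt A4I591). Compounds at 30 µM. Higher reads as stronger inhibition (inferred: compounds with an IC50 in retests scored well above the rest). The assay is labelled LdHisRS but filed under L. infantum. Size under these conditions: about 69,000 compounds, about 410 of them at 50% or above in at least one test.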
PfKRS1: 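Enzyme assay of the cytosolic lysyl-tRNA synthetase in 384-well plates, read by luminescence. Target: Lysine-tRNA ligase, Plasmodium falciparum 3D7 (UniProt Q8IDJ8). Compounds at 30 µM. Higher reads as stronger inhibition, judged from the few compounds that gave an IC50. Of about 69,000 compounds tested this way, about 49 (0.071%) reached 50% or more in at least one test.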
TcHisRS: 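Histidine-tRNA ligase, Trypanosoma cruzi CL Brener (UniProt Q4DA54). Enzyme assay of histidyl-tRNA synthetase; the read-out is not stated. Compounds at 30 µM. Direction is inferred from retests: higher values go with stronger inhibition. Of about 69,000 compounds tested this way, about 31 (0.045%) reached 50% or more in at least one test.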

Results are given as percent effect.
How 0% and 100% were set is not recorded. Most values in the screen are low, and negative values occur.
This is an unselected part of the compounds tested.

With CCc1nnc(Nc2cccc(C3CCN(C(=O)CO)CC3)n2)s1 the screen gave LiHisRS: -8%; PfKRS1: 1.483%; TcHisRS: 4.494%.
With COC(=O)c1oc(CNC(C)(C)c2ccc3c(c2)OCCO3)cc1C the screen gave LiHisRS: 1.587%; PfKRS1: 0.2489%; TcHisRS: 7.071%.
With Cc1ccccc1N1CC2(CCN(c3nncs3)C2)CC1=O (configuration not stated) the screen gave LiHisRS: 11.11%; PfKRS1: -0.7871%; TcHisRS: 2.804%.
With Cc1nc(C(C)C)sc1C(=O)NCC(C)(C)N1CCOCC1 the screen gave LiHisRS: 16.33%; PfKRS1: 2.76%; TcHisRS: 4.103%.
With N#Cc1cnn(-c2ccc(C(=O)N(C3CCCCC3)C3CC3)cc2)c1N the screen gave LiHisRS: 13.68%; PfKRS1: 1.032%; TcHisRS: 0.8547%.
With Cn1cccc1C(=O)N1CCc2c(CNS(C)(=O)=O)cncc2C1 the screen gave LiHisRS: 8.333%; PfKRS1: -2.241%; TcHisRS: 5.714%.
With COC(=O)c1cccn1C1CCN(Cc2cccnc2)CC1 the screen gave LiHisRS: 11.97%; PfKRS1: 0.201%; TcHisRS: 4.843%.
With OC1CCCOC12CCN(CCCOc1ccccc1F)CC2 (configuration not stated) the screen gave LiHisRS: 5.634%; PfKRS1: 2.094%; TcHisRS: 3.03%.
With CCCOCC1CCN(C(=O)c2cnc(-c3csc(C)n3)nc2O)C1 (configuration not stated) the screen gave LiHisRS: 13.11%; PfKRS1: -0.522%; TcHisRS: 4%.
With CCOC(=O)c1cnn(-c2cc(Oc3cc(C)ccc3C)ncn2)c1N the screen gave LiHisRS: 14.29%; PfKRS1: 3.238%; TcHisRS: 4.386%.
With O=C(NCCCO)c1cc(-c2ccc3c(c2)CCO3)n[nH]1 the screen gave LiHisRS: 21.05%; PfKRS1: 2.618%; TcHisRS: -1.754%.
With O=C(NCCNC1CCCC1)c1cccs1 the screen gave LiHisRS: 4.828%; PfKRS1: 1.519%; TcHisRS: 3.802%.
With Cc1cc(N2CCOC(CN)C2)nc(-c2ccccc2)n1 (configuration not stated) the screen gave LiHisRS: 35.56%; PfKRS1: 4.963%; TcHisRS: 10.71%.
With Cc1nc(NC(=O)C2CCCN(C(N)=O)C2)sc1-c1ccccc1 (configuration not stated) the screen gave LiHisRS: 20.54%; PfKRS1: 2.763%; TcHisRS: 3.448%.
With Cc1ccc(C2CN(CCCC#N)CCO2)c(C)c1 (configuration not stated) the screen gave LiHisRS: 10.42%; PfKRS1: 3.221%; TcHisRS: 2.083%.
With CN(Cc1ccccc1C(F)(F)F)C(C(N)=O)c1ccccc1 (configuration not stated) the screen gave LiHisRS: 19.75%; PfKRS1: -1.687%; TcHisRS: -5.521%.
With CC/N=c1/c(NC(=O)NCCOC)c(O)oc2ccccc12 the screen gave LiHisRS: 12.39%; PfKRS1: -1.18%; TcHisRS: -0.8772%.
With Cc1csc(C(Cc2cccs2)NCc2cc3c(cc2C)OCO3)n1 (configuration not stated) the screen gave LiHisRS: -1.449%; PfKRS1: -1.722%; TcHisRS: 4.545%.
With Cc1csc(C2CCCCN2C(=O)CCn2cncn2)n1 (configuration not stated) the screen gave LiHisRS: 11.67%; PfKRS1: -2.605%; TcHisRS: -1.299%.
With CN(Cc1cccs1)C(=O)CN1CCOC(Cn2cncn2)C1 (configuration not stated) the screen gave LiHisRS: 15.52%; PfKRS1: 0.1811%; TcHisRS: 5.085%.
With CCc1c(C)nc2n(c1=O)CC(C(=O)Nc1ccccc1F)CS2 (configuration not stated) the screen gave LiHisRS: 16.5%; PfKRS1: 1.236%; TcHisRS: 5.435%.
With CCOc1ccccc1CNC(=O)N(CC)C(C)c1cccnc1 (configuration not stated) the screen gave LiHisRS: 17.74%; PfKRS1: 4.483%; TcHisRS: 11.49%.
With O=C(CN1CCCS1(=O)=O)Nc1cccc(COC2CCCCC2)c1 the screen gave LiHisRS: 13.43%; PfKRS1: 1.833%; TcHisRS: 5.319%.
With COCCCN1CC2(CCN(Cc3cc(C(C)C)no3)CC2)CC1=O the screen gave LiHisRS: 15.2%; PfKRS1: 1.311%; TcHisRS: 3.518%.
With CN(C)C[C@@H]1CN(C(=O)Cc2ccccc2)C[C@@H]1CO the screen gave LiHisRS: 6.557%; PfKRS1: 0.7219%; TcHisRS: 4.04%.
With CN1C[C@H]2C[C@H](C(=O)Nc3cccnc3)[C@@H](C1)O2 the screen gave LiHisRS: 4%; PfKRS1: 4.322%; TcHisRS: 5.882%.
With Cc1cc(C)n(-c2ccc(CNCc3ccc(F)c(F)c3)cn2)n1 the screen gave LiHisRS: 1.786%; PfKRS1: -1.435%; TcHisRS: 2.959%.
With CC(NC(=O)NCc1cccnc1N(C)C)c1ccc(F)cc1 (configuration not stated) the screen gave LiHisRS: 20.48%; PfKRS1: 2.385%; TcHisRS: 7.463%.
With O=C(O)c1cc(-c2ccoc2)cc(S(=O)(=O)NC2CC2)c1 the screen gave LiHisRS: 4.167%; PfKRS1: 6.34%; TcHisRS: 2.235%.
With CC(c1cccc(O)c1)N(C)S(N)(=O)=O (configuration not stated) the screen gave LiHisRS: -40%; PfKRS1: -0.3977%; TcHisRS: 3.896%.

For reference, 3 entries once more:

CCOC(=O)c1cnn(-c2cc(Oc3cc(C)ccc3C)ncn2)c1N gave LiHisRS: 14.29%; PfKRS1: 3.238%; TcHisRS: 4.386%.
O=C(NCCCO)c1cc(-c2ccc3c(c2)CCO3)n[nH]1 gave LiHisRS: 21.05%; PfKRS1: 2.618%; TcHisRS: -1.754%.
Cc1cc(N2CCOC(CN)C2)nc(-c2ccccc2)n1 (configuration not stated) gave LiHisRS: 35.56%; PfKRS1: 4.963%; TcHisRS: 10.71%.

Data taken from ChEMBL document CHEMBL3988442, “University of Dundee, Small-Polar-MMV Screening Library” (2021).